Laboratory results from patent US12496303B2, “Conditioning agents for use in allogeneic hematopoietic stem cell transplantation” (priority 2020, dated 2025).

Conditions: baricitinib pumps, earliest time points, corrected by later timepoints
Experimental: To investigate the efficacy of ADCs for allo-HSCT conditioning, two transplant models were used (see e.g., FIG. 2A): a miHA-mismatched BALB/c-Ly5.1→DBA/2 model and a haploidentical CB6F1→B6 (F1-to-parent) model MHC-mismatched for H-2d in the host-versus-graft direction. CD45-SAP was chosen for conditioning in these studies to leverage its lymphodepleting activity to overcome graft rejection.
Mice were injected with CD45-SAP or cKit-SAP at doses indicated in each figure at 7 days pre-transplant (d-7). In general, 3 mg/kg (75 μg) CD45-SAP, and 0.4 mg/kg or 2 mg/kg (10 or 50 μg, respectively) cKit-SAP were used. On transplant day (d0), mice received 10×10^6 whole donor bone marrow cells via the retroorbital injection.
CD4^+ and CD8^+ T cell depletion was done using clones GK1.5 and YTS169.4, respectively, and NK cell depletion done using clone PK136. […] All antibodies were administered intraperitoneally at 250 μg per dose following the schema for each experiment.
Immediately prior to injection, these DMSO stocks were thawed, diluted 1:10 in PBS, and injected at 200 μl/mouse subcutaneously (400 μg daily dose).
ALZET subcutaneous osmotic pumps (Model 2004) were used to continuously deliver JAK1/2 inhibitors to mice for 28 days at a rate of 0.25 μL/hour (6 μL/day). A vehicle of 50% dimethyl sulfoxide (DMSO)/50% polyethylene glycol 400 (PEG-400) was used for all experiments. […]

CCS(=O)(=O)N1CC(CC#N)(n2cc(-c3ncnc4[nH]ccc34)cn2)C1 [baricitinib]
anemia / CBCs: mild anemia
